# Screening data, single-dose tests

Sequences of proteins named here, by UniProt entry; tags and fusion partners are left off. Residues count along the entry.
UniProt I6X8D2, whole entry: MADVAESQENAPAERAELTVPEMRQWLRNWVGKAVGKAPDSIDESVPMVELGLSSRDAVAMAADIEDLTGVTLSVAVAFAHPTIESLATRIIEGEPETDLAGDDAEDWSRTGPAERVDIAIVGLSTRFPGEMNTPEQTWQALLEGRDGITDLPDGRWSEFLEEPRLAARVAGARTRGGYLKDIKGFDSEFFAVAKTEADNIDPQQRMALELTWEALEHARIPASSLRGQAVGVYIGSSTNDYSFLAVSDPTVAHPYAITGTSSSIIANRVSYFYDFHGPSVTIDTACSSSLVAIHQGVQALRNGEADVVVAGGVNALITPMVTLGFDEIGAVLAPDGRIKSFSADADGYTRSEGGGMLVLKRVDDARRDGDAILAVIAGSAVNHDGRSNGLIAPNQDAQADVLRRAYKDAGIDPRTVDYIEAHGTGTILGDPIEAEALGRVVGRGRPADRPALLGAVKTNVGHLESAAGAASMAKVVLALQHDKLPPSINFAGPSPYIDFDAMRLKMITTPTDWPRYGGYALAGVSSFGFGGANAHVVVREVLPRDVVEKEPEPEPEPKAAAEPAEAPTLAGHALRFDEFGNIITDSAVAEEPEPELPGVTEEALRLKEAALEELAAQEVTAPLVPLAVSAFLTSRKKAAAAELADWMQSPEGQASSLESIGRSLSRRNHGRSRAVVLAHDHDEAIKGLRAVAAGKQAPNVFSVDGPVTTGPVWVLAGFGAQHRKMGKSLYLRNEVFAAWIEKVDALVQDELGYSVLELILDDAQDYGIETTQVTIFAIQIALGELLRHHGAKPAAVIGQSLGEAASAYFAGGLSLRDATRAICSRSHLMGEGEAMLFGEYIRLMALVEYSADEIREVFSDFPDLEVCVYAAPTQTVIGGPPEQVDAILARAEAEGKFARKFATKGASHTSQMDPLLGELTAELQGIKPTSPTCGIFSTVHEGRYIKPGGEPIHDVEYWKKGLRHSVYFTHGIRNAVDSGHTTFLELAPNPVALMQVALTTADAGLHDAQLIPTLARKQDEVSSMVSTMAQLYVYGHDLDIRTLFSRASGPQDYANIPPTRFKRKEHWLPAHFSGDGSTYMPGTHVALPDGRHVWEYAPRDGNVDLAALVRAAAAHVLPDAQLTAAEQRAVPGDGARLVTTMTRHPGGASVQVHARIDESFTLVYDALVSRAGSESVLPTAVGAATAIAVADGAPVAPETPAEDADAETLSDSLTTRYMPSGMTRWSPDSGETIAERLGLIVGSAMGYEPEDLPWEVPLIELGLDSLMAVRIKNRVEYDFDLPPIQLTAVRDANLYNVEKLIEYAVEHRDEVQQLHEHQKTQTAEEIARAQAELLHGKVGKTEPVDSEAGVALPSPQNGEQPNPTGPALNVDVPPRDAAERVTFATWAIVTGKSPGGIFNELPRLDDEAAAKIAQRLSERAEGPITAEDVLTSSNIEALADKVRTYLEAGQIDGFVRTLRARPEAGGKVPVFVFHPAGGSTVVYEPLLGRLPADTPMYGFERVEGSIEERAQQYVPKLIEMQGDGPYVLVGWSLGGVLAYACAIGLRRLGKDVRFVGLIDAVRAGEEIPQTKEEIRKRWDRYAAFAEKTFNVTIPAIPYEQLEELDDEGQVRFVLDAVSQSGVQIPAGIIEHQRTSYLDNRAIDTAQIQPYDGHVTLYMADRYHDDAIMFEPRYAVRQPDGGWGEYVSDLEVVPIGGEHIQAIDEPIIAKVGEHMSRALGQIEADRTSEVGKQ
UniProt P9WFT3, whole entry: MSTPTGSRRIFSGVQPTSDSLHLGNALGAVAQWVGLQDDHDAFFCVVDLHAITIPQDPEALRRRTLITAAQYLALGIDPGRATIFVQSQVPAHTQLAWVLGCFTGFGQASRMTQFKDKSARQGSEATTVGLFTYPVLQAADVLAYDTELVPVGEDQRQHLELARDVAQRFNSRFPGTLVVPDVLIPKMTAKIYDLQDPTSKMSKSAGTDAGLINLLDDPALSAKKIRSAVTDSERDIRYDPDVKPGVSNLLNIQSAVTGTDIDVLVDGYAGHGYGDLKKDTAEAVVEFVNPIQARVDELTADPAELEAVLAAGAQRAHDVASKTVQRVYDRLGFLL
UniProt P9WNZ1, whole entry: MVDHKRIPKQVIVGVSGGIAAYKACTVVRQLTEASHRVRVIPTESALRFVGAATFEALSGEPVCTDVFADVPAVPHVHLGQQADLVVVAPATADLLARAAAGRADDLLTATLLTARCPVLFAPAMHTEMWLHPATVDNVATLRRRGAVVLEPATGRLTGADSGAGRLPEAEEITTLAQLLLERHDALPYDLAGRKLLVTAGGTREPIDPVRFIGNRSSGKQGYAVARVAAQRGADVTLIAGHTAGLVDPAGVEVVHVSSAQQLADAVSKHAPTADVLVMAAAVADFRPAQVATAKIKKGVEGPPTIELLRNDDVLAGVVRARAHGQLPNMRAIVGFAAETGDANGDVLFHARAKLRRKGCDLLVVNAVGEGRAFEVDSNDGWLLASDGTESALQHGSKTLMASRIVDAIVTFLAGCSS
UniProt Q8IDJ8, 1-583: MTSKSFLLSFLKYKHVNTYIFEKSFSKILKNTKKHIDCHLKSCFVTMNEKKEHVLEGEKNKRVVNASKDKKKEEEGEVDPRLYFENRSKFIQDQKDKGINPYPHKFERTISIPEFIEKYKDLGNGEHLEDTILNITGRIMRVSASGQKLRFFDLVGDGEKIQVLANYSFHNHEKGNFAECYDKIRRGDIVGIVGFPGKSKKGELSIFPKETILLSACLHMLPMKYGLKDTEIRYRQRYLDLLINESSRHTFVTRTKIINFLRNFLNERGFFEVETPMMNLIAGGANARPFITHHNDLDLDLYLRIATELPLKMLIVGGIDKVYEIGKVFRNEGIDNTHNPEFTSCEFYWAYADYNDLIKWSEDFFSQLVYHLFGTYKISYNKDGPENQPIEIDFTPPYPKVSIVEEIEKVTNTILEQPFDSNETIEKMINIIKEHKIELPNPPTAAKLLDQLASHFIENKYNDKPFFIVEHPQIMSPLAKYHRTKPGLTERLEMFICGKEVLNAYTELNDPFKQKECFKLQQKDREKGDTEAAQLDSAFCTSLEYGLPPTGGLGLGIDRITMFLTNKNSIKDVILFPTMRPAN

Source: ChEMBL document CHEMBL3988442, “University of Dundee, Small-Polar-MMV Screening Library” (2021).

Values are the deposited “Percent Effect”, in %.
The controls that fix the scale are not given in the record; negative values are as filed.
This is an unselected part of the compounds tested.

Pks13 thioesterase: 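Enzyme assay of the thioesterase domain of polyketide synthase 13; the read-out is not stated. Target: Polyketide synthase Pks13, Mycobacterium tuberculosis (UniProt I6X8D2). Compounds at 30 µM. Higher reads as stronger inhibition (inferred from which compounds were picked for retests). Size under these conditions: about 67,000 compounds, about 300 of them at 50% or above in at least one test.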
MtTrpRS: 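Enzyme assay of tryptophanyl-tRNA synthetase; the read-out is not stated. Target: Tryptophan-tRNA ligase, Mycobacterium tuberculosis (UniProt P9WFT3). Tested at 10 µM. Higher most likely means stronger inhibition; the record gives no direction and few retests gave an IC50. Size under these conditions: about 65,000 compounds, about 64 of them at 50% or above in at least one test.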
CoaBC: 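Coenzyme A biosynthesis protein CoaBC, Mycobacterium tuberculosis (UniProt P9WNZ1). Enzyme assay of CoaBC with a phosphate dye (Biomol Green) read at 650 nm. Concentration: 30 µM. Higher reads as stronger inhibition, judged from the few compounds that gave an IC50. Most strong results did not repeat in a second test. Size under these conditions: about 67,000 compounds, about 40 of them at 50% or above in at least one test.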
PfKRS1: 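Enzyme assay of the cytosolic lysyl-tRNA synthetase in 384-well plates, read by luminescence. Target: Lysine-tRNA ligase, Plasmodium falciparum 3D7 (UniProt Q8IDJ8). Concentration: 30 µM. Higher reads as stronger inhibition, judged from the few compounds that gave an IC50. Size under these conditions: about 69,000 compounds, about 49 of them at 50% or above in at least one test.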

- O[C@H]1CCN(CC2CCOC2)[C@H]1Cc1ccncc1 (stereo not given in full) : Pks13 thioesterase: -27.61%; MtTrpRS: 3.585%; PfKRS1: -2.162%
- CN1C(=O)CCC12CCN(c1ccc(C#N)cn1)CC2 : Pks13 thioesterase: -9.236%; CoaBC: 2.599%; PfKRS1: 2.571%
- COc1ccc(CN(Cc2ccsc2)CC2CCCO2)cn1 (stereo not given) : Pks13 thioesterase: -4.122%; MtTrpRS: 2.067%; CoaBC: -13.42%; PfKRS1: 4.41%
- c1ccc(NCc2cn3c(n2)CN(Cc2cccnc2)CC3)nc1 : Pks13 thioesterase: -7.605%; MtTrpRS: -1.831%; CoaBC: 4.884%; PfKRS1: -1.455%
- CC(C1CCN(Cc2ccc(N(C)C)nc2)CC1)N1CCOCC1 (stereo not given) : Pks13 thioesterase: -1.051%; MtTrpRS: -0.7819%; CoaBC: 0.1248%; PfKRS1: 1.784%
- N#CC(NC(=O)CS(=O)(=O)C1CCCC1)c1ccc(F)cc1F (stereo not given) : Pks13 thioesterase: -18.51%; MtTrpRS: -3.994%; CoaBC: 0.7335%; PfKRS1: 2.869%
- CC(C)NC(=O)c1ccc2c(c1)nc1n2CCN(C(C)C)C1 : Pks13 thioesterase: -40.35%; MtTrpRS: -6.231%; CoaBC: 4.172%; PfKRS1: 4.35%
- COCCOC1CCN(C(C(=O)O)c2ccc(OC)c(F)c2)CC1 (stereo not given) : Pks13 thioesterase: -8.314%; MtTrpRS: -7.987%; CoaBC: 7.654%; PfKRS1: 2.375%
- CC(C)c1nc(/C=C/c2ccc(O)c(Cl)c2)ncc1C(=O)O : Pks13 thioesterase: -0.0933%; MtTrpRS: -7.808%; CoaBC: 6.399%; PfKRS1: 4.167%
- Cc1cc(CNC2(c3ccccc3)CCCCC2)no1 : Pks13 thioesterase: -11.88%; MtTrpRS: -2.374%; CoaBC: -4.018%; PfKRS1: 2.025%
- CN(Cc1noc2c1CCCC2)C(=O)Nc1ccc2oc(=O)n(C)c2c1 : Pks13 thioesterase: -14.68%; MtTrpRS: 4.637%; CoaBC: 4.904%; PfKRS1: 1.75%
- CCc1csc(CCNC(=O)CC2CCN(C(C)C)CC2)n1 : Pks13 thioesterase: -18.78%; MtTrpRS: -0.7819%; CoaBC: 1.623%; PfKRS1: 0.7331%
- Cc1ccc2c(n1)N(CCn1cccn1)CCN(C1CCOCC1)C2 : Pks13 thioesterase: -13.06%; MtTrpRS: -11.16%; CoaBC: 0.4938%; PfKRS1: 1.296%
- O=C(NCC1(O)CCc2ccccc2C1)c1cccs1 (stereo not given) : Pks13 thioesterase: -14.2%; MtTrpRS: 3.431%; CoaBC: -3.361%; PfKRS1: 3.138%
- CC1(c2ccccc2)CCCN(Cc2nnc(-c3cccnc3)o2)C1 (stereo not given) : Pks13 thioesterase: -20.94%; MtTrpRS: 0.5146%; CoaBC: 5.462%; PfKRS1: -0.9391%
- CCC1CN(CC(=O)NCCOC)CCO1 (stereo not given) : Pks13 thioesterase: -18.41%; MtTrpRS: 2.642%; CoaBC: -3.975%; PfKRS1: -0.9116%
- N#Cc1ccc(CNC2CCN(CCc3ccncc3)CC2)cc1 : Pks13 thioesterase: -15.72%; MtTrpRS: -4.036%; CoaBC: -32.46%; PfKRS1: 3.758%